Measured values as given in patent publication US8153142B2, “Skin treatment composition” (Shiseido Co., Ltd., priority 2001, dated 2012).

System: human skin
Experiment: Evaluation No.(6): Compatibility with Skin
Type: in vivo
Details: basic composition B

“Polyoxyethylene (10) polyoxypropylene (10) dimethyl ether [Compound 2]” was tested, and the “Compatibility (6)” value (Table 12, tested compound 5.0 wt %) was “⊚ (Not less than 8 special panelists recognized that the compatibility with skin during use was good.)”, the “Compatibility (6)” value (Table 13, Y/X study) was “⊚ (Not less than 8 special panelists recognized that the compatibility with skin during use was good.)” and the “Compatibility (6)” value (Table 14, tested compound 5.0 wt %) was “⊚ (Not less than 8 special panelists recognized that the compatibility with skin during use was good.)”.
